This note sets out measurements from PubChem BioAssay AID1487 (National Center for Advancing Translational Sciences (NCATS), 2009).

Some of the results follow. Shown are side measurements of this screen, not its main read-out; they come without a call. Most of these compounds were active or inconclusive in the main read-out, so they are no random draw. The note in brackets gives the kind of curve behind each potency; many fits are weak.

The nature of this experiment: qHTS Assay for Modulators of Lamin A Splicing. Conditions: HeLa LMNA splicing GFP/RFP minigene ratio, 48 h. The method, boiled down: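 S3 HeLa cells stably expressing lamin A-EGFP splicing minigene plus DsRed2, 600 cells/well, 48 h compound exposure at 37C. Laser-scanning cytometry; analysed as GFP (500-530 nm)/RFP (575-640 nm) total intensity ratio; 0.5% DMSO vehicle.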
A general note: qHTS replaces the single test concentration by a dilution series.

The mark [1] stands for this setting: measured here: GFP splicing reporter channel.
[2] abbreviates: measured here: RFP viability control channel.

Turning to `CCc1cccc(NC(=O)Cn2c(=O)n3nc(-c4cccc(F)c4)nc3c3ccccc32)c1`, the AC50 (as a rule, the midpoint of the concentration-response curve, whichever way the signal moves) by setting is: under setting [1], 5.62 µM [falling, partial curve, poor fit]; under setting [2], 28.2 µM [falling, partial curve]. As for `COC(=O)c1sc(-c2ccccc2)cc1NC(C)=O`, the AC50 under setting [2] is 10 µM [falling, partial curve, poor fit]. On the same count and under the same terms, the same measure for `CCN(CC)S(=O)(=O)c1ccc2oc(C(=O)NCc3ccc(F)cc3)c(C)c2c1`: 11.2 µM [rising, single point]. Take `Cc1ccc(NC(=S)N2CCCC(c3nc4ccc(C)cc4[nH]3)C2)c(C)c1` (configuration not stated): under setting [1], the concentration at half-maximal activity (AC50) is 0.0112 µM [rising, partial curve]. Turning to `CCOC(=O)c1cc(-c2ccccc2)n(CCCC(=O)Nc2ccccc2C)c1C`, the AC50 under setting [2] was 0.398 µM [falling, full curve, poor fit]. The same measure, in the same setting: the same measure for `CC1CC(C)CN(S(=O)(=O)c2ccc(C(=O)N3CCN(c4ccccc4)CC3)cc2)C1` (configuration not stated): 22.4 µM [rising, partial curve].

Take `O=C(/C(=C\c1ccccc1)c1nc2ccccc2[nH]1)c1ccc(Cl)cc1`: the concentration at half-maximal activity (AC50) under setting [1] is 35.5 µM [falling, single point] and the AC50 under setting [2] was 35.5 µM [falling, single point]. As for `O=C(Nc1ccc(-c2nc3ccccc3[nH]2)cc1)c1cccc(N2C(=O)CCC2=O)c1`, under setting [2], the AC50 was 0.1 µM [rising, full curve, poor fit]. On the same count and under the same terms, the same measure for `Cc1ccc(CNC(=O)CC2C(=O)Nc3c2c(=O)n(C)c(=O)n3Cc2ccccc2)cc1` (configuration not stated): 4.47 µM [falling, single point]. As for `CCc1ccc(NC(=O)CN2C(=O)c3ccccc3Sc3ccc(C(=O)N4CCCC4)cc32)cc1`, the half-maximal activity concentration (AC50) is 35.5 µM [falling, partial curve, poor fit] under setting [1] and 35.5 µM [falling, partial curve, poor fit] under setting [2]. On to `Cc1ccc2nc(COc3cccc(NC(=O)c4ccccc4Cl)c3)cc(=O)n2c1`, for which the AC50 is 7.08 µM [falling, partial curve] under setting [1] and 0.794 µM [falling, full curve, poor fit] under setting [2]. In the case of `Cc1ccc(-c2nc(CCNC(=O)C(=O)Nc3c(C)cccc3C)cs2)cc1`, under setting [1], the half-maximal activity concentration (AC50) is 0.126 µM [rising, partial curve, poor fit]. In the case of `CC(C)c1nnc(N2C(=O)C(O)=C(C(=O)c3cccs3)C2c2ccccc2)s1` (configuration not stated), under setting [2], the AC50 is 7.08 µM [rising, partial curve, poor fit]. The same measure, in the same setting: the same measure for `Cc1ccc2c(c1)c1nc3ccccc3nc1n2CCN1CCOCC1`: 2.82 µM [rising, full curve, poor fit]. `CN(C)CCNc1oc(COc2cccc(Cl)c2)nc1C#N`: the AC50 under setting [1] was 14.1 µM [rising, single point]. For the compound `COc1cc2[nH]c3c(N4CCN(c5ccccn5)CC4)ncnc3c2cc1OC`, the AC50 under setting [2] was 7.08 µM [rising, partial curve]. With `Cc1ccc(-c2nn(C)c(=O)c3ccccc23)cc1S(=O)(=O)N1CCCC1`, the half-maximal activity concentration (AC50) under setting [2] is 11.2 µM [rising, single point]. As to `CC(C)c1ccc(/C=C(/C#N)c2nnc(NC(=O)c3ccccc3)s2)cc1`, the AC50 is, setting by setting: under setting [1], 5.62 µM [rising, full curve]; under setting [2], 5.62 µM [rising, partial curve]. As to `CCCN(CCC)C(=O)c1nn(C)c2c1CSc1ccc(C)cc1-2`, the AC50 under setting [1] is 2 µM [falling, single point].

For the compound `CC(C)Cc1nc(N2CCN(C(=O)c3ccco3)CC2)c(C#N)c2c1CCC2`, the AC50 was 14.1 µM [rising, single point] under setting [1] and 20 µM [rising, single point] under setting [2]. On to `O=C(Nc1ccc(Cl)c(Cl)c1)Nc1cc(S(=O)(=O)N2CCOCC2)ccc1N1CCCC1`, for which the half-maximal activity concentration (AC50) under setting [2] was 17.8 µM [rising, partial curve].

In the case of `COC(=O)c1cc(Sc2cccc(Cl)c2Cl)ccn1`, under setting [1], the AC50 was 20 µM [falling, single point].

Take `CCOc1ccccc1CNC(=O)c1nn(CC)cc1[N+](=O)[O-]`: the concentration at half-maximal activity (AC50) under setting [1] was 35.5 µM [rising, single point]. Turning to `Cc1ccc(OCCCNCCO)c(Br)c1`, under setting [2], the AC50 is 12.6 µM [rising, single point]. Same read-out and setting: the same measure for `COc1ccc(S(=O)(=O)Nc2ccc(NC(C)=O)cc2)cc1Br`: 3.55 µM [rising, single point]; for `CC(=O)Nc1nc(-c2ccc3c(c2)CCO3)cs1`: 17.8 µM [falling, single point]. Consider `CCOC(=O)N1CCN(CC(=O)Nc2c(C(=O)OC)[nH]c3ccc(Cl)cc23)CC1`, for which, under setting [2], the half-maximal activity concentration (AC50) is 15.8 µM [rising, partial curve]. In the case of `Cc1noc(C)c1COC(=O)c1cc2c3ccccc3n(C)c2s1`, the AC50 under setting [2] is 15.8 µM [rising, single point]. As for `Cc1ccc(NC(=S)N(CCN2CCCCC2)Cc2ccco2)cc1C`, the concentration at half-maximal activity (AC50) under setting [1] was 35.5 µM [falling, single point].

Turning to `COc1ccc(C)cc1NC(=O)c1oc2ccc(S(=O)(=O)N3CCC4(CC3)OCCO4)cc2c1C`, the concentration at half-maximal activity (AC50) under setting [2] was 0.447 µM [falling, full curve, poor fit]. Regarding `CCN(C(=O)COC(=O)c1c2c(nc3ccccc13)/C(=C/c1ccccc1)CC(C)C2)C1CCS(=O)(=O)C1` (configuration not stated), the AC50 under setting [1] is 35.5 µM [falling, single point] and the AC50 under setting [2] is 22.4 µM [falling, single point]. As for `CC(=O)Nc1ccc(NC(=O)CSc2nccn2Cc2ccccc2)cc1`, the AC50 under setting [2] was 20 µM [rising, single point].

Regarding `CC(N)C12CC3CC(CC(C3)C1)C2` (configuration not stated), under setting [1], the AC50 was 0.0891 µM [rising, full curve, poor fit]. The same measure, in the same setting: the same measure for `O=C(Nc1cccnc1)c1ccccc1NS(=O)(=O)c1ccc(F)cc1`: 2 µM [falling, partial curve, poor fit]. As to `CCCCc1ccc2nc(NC(=O)OC)[nH]c2c1`, the half-maximal activity concentration (AC50) was 0.112 µM [falling, full curve] under setting [1] and 0.112 µM [falling, full curve] under setting [2]. In the case of `O=C(Nc1ccccc1N1CCCC1)c1cccc(-c2cc3ccccc3oc2=O)c1`, the concentration at half-maximal activity (AC50) is 7.94 µM [rising, partial curve, poor fit] under setting [1] and 15.8 µM [rising, partial curve] under setting [2]. Take `COc1ccc(/C=C/C(=O)NC(=S)NNC(=O)Cc2cccs2)cc1`: the half-maximal activity concentration (AC50) under setting [1] is 1.26 µM [falling, partial curve] and the AC50 under setting [2] was 1.26 µM [falling, partial curve].
